Laboratory results published in PubChem BioAssay AID540276 (National Center for Advancing Translational Sciences (NCATS), 2011).
Among all 300,000 compounds or so, about 5,400 (1.8%) were called active. Inconclusive means that the source gave no clear call. Such entries were picked first, then a sample of the others. Calls follow the shape of the full dose curve; tested in HEK293 cells. Potencies of inconclusive entries are doubtful fits and often do not repeat.

Test: qHTS for inhibitors of binding or entry into cells for Marburg Virus
Details: Marburg virus pseudotyped entry inhibition, cell reporter; activity change, negative = inhibition: at 37.8 µM (top of the series) unless noted
% is scaled to controls: 0 for no effect and ±100 for the full control effect; potency is read from the fitted curve at half-maximal effect.

Structure (SMILES) | Potency | activity change, negative = inhibition
COc1ccc(-c2ccc(N)[n+](CCCC(=O)O)n2)cc1 | inconclusive: 0.158 µM [inhibitor, full curve, poor fit] | 
CCCCN(CCCC)C(=O)c1cc2ccccc2c(=O)o1 |  | inactive: 0.938%
CC1=Nn2c(nc3sc4c(c3c2=O)CCCC4)SC1 | inconclusive: 6.51 µM [activator, partial curve, poor fit] | 
COc1ccc(CN2CCN(Cc3ccc(OC)c(OC)c3OC)CC2)cc1 | inconclusive: 28.2 µM [inhibitor, single point] | 
CN(Cc1ccccc1)C(=O)CSc1nc2ccccc2c(=O)n1Cc1ccco1 | active: 6.51 µM | 
CC(=O)NN1C(=O)/C(=C/c2ccc(Br)o2)SC1=S |  | inactive: -9.5%
CN(C)c1cccc(C(=O)NCCCSc2ccccc2)c1 | inconclusive: 35.5 µM [inhibitor, single point] | 
O=C(CC(=O)c1ccccc1)Nc1ccccn1 |  | inactive: 10.2% [at 46.1 µM]
O=[N+]([O-])c1cccc(/C=N/n2c(C3CCCCC3)n[nH]c2=S)c1 | inconclusive: 3.16 µM [inhibitor, single point] | 
COc1cc(=O)[nH]c(SCC(=O)Nc2nc3c(s2)CCCC3)n1 |  | inactive: -0.315% [at 46.1 µM]
CC1Sc2ccc(C(=O)Nc3ncccc3O)cc2NC1=O (centres undefined) | active: 10 µM | 
COc1ccc(NS(=O)(=O)c2cc(NC(=O)c3ccc(C)o3)ccc2N2CCCCC2)cc1 | inconclusive: 32.6 µM [inhibitor, single point] | 
O=c1sc2ccccc2n1CCCOc1ccccc1 |  | inactive: 5.46% [at 46.1 µM]
O=C1NC(=O)C2(Cc3ccccc3N3CCCC32)C(=O)N1c1ccc(Cl)cc1 (centres undefined) | inconclusive: 7.3 µM [inhibitor, partial curve, poor fit] | 
Cc1ccc(O)c(NC(=O)c2cc([N+](=O)[O-])ccc2Cl)c1 |  | inactive: -18.3% [at 46.1 µM]
COC(=O)c1sc(NC(=O)c2cc3c(s2)CCCC3)nc1C |  | inactive: 11%
O=C(NCCSCc1c(F)cccc1Cl)Nc1ccccc1 | inconclusive: 35.5 µM [inhibitor, single point] | 
CC(=O)Nc1ccc(S(=O)(=O)N2CCC(C(=O)c3ccc(F)cc3)CC2)cc1 | inconclusive: 12.6 µM [inhibitor, partial curve, poor fit] | 
Cc1cccc(Oc2nc(-c3ccncc3)nc3ccccc23)c1 | inconclusive: 20 µM [inhibitor, partial curve, poor fit] | 
CCCCN(CC)CCNC(=O)c1nn(-c2ccc(OC)cc2)c(=O)c2c1c1ccccc1n2C | inconclusive: 0.891 µM [inhibitor, full curve, poor fit] | 
O=C(COC(=O)c1cc(-c2cccs2)nc2ccccc12)NCc1ccco1 |  | inactive: -11.3%
CCOC(=O)c1c(NC(=O)COc2ccc(OC)cc2)sc(C(=O)N(CC)CC)c1C | inconclusive: 11.2 µM [inhibitor, partial curve, poor fit] | 

Single records (already shown).
O=C(NCCSCc1c(F)cccc1Cl)Nc1ccccc1 as listed: Potency: inconclusive: 35.5 µM [inhibitor, single point]
Cc1cccc(Oc2nc(-c3ccncc3)nc3ccccc23)c1 as listed: Potency: inconclusive: 20 µM [inhibitor, partial curve, poor fit]
COc1ccc(NS(=O)(=O)c2cc(NC(=O)c3ccc(C)o3)ccc2N2CCCCC2)cc1 as listed: Potency: inconclusive: 32.6 µM [inhibitor, single point]

(further entries)

Structure (SMILES) | Potency | activity change, negative = inhibition
Cn1c(=O)c(Nc2ccc(Cl)cc2)c2c3c(cccc31)C(=O)c1ccccc1-2 | inconclusive: 22.4 µM [inhibitor, single point] | 
Cc1ccccc1OCC(=O)N/N=C/c1ccncc1 |  | inactive: 6.7%
COC(=O)C1c2c(n(C)c3ccccc23)[C@H]2[C@@H](C)[C@H](OC)c3ccccc3[C@@H]12 (some centres undefined) | inconclusive: 5.31 µM [inhibitor, single point] | 
COc1ccc(-n2c(/C=C3/C(=O)Nc4ccccc43)nc3ccccc3c2=O)cc1 | inconclusive: 1.58 µM [inhibitor, partial curve, poor fit] | 
Cc1ccc(C(c2cc(Cl)c3cccnc3c2O)N2CCN(C)CC2)cc1 (centres undefined) | inconclusive: 15.8 µM [inhibitor, partial curve, poor fit] | 
COc1ccc(NC(=S)NC(=O)/C=C/c2ccco2)c(OC)c1 | inconclusive: 11.2 µM [inhibitor, partial curve] | 
Cc1ccc(C(C)C)c(OCc2ccc(-c3nnco3)cc2)c1 | inconclusive: 6.31 µM [activator, single point] | 
O=C1SC(c2ccccc2)=N/C1=C/c1ccco1 | inconclusive: 0.651 µM [activator, full curve, poor fit] | 
O=C(Nc1ccc(Br)cc1)c1ccc(Br)c(S(=O)(=O)Nc2cccnc2)c1 | inconclusive: 7.08 µM [inhibitor, partial curve, poor fit] | 
CCC1=Nc2cc(C(=O)N3CCC(C)CC3)ccc2Sc2ccc(C)cc21 |  | inactive: -34.4% [at 46.1 µM]
CN(C)CC(=O)Nc1ccc(Oc2ccc(Cl)cc2)cc1 | inconclusive: 35.5 µM [inhibitor, single point] | 
COc1ccc2cc(CCNC(=O)c3ccco3)c(=O)[nH]c2c1 |  | inactive: -0.707%
O=S(=O)(NCc1ccco1)c1ccc(S(=O)(=O)N2CCCCC2)cc1 | inconclusive: 4.11 µM [inhibitor, partial curve, poor fit] | 
CCNc1ccc(S(=O)(=O)N(C)C)cc1NCC(=O)Nc1c(F)cccc1F | inconclusive: 0.1 µM [activator, full curve, poor fit] | 
CCC(C)(C)NC(=O)C(c1ccc(F)cc1)N(CCOC)C(=O)CCC(=O)Nc1nccs1 (centres undefined) | inconclusive: 8.91 µM [inhibitor, single point] | 
COc1ccc(N2C(=O)c3ccccc3NC2c2cccnc2)cc1 (centres undefined) | inconclusive: 4.47 µM [activator, full curve] | 
COc1ccc(C(=O)NC(=S)NNC(=O)c2ccccc2O)cc1 | active: 12.6 µM | 
CC1CCN(C(=O)CS(=O)(=O)Cc2ccccc2)CC1 | inconclusive: 6.31 µM [activator, partial curve] | 
Cc1ccnc(NC(=O)c2cnc(Cl)c(Cl)c2)c1 | inconclusive: 3.55 µM [activator, single point] | 
Cc1ccn2cc(C(=O)Nc3nnc(C)s3)nc2c1 | inconclusive: 6.51 µM [activator, partial curve] | 
CCCC(=O)N1CCN(c2ccc(NC(=O)c3cc4ccccc4o3)cc2)CC1 | inconclusive: 22.4 µM [inhibitor, single point] | 
Cc1ccc(SCCNC(=O)CN2C(=O)c3ccccc3S2(=O)=O)cc1 |  | inactive: 1.97%
